Assay results as given in article doi:10.1101/802025.
No constants are given. Whether binding was seen depends on the method and setting. Binding seen in cells or lysates may run through a third protein. Some binding calls cover weakened binding; strength is not graded here. Where a sequence is shown, tags or fusion partners need not be part of it.

B1: Cohesin-associated factor B (PDS5B) (protein, UniProt Q9NTI5 1-1447)
chain: MAHSKTRTNDGKITYPPGVKEISDKISKEEMVRRLKMVVKTFMDMDQDSEEEKELYLNLALHLASDFFLKHPDKDVRLLVACCLADIFRIYAPEAPYTSPDKLKDIFMFITRQLKGLEDTKSPQFNRYFYLLENIAWVKSYNICFELEDSNEIFTQLYRTLFSVINNGHNQKVHMHMVDLMSSIICEGDTVSQELLDTVLVNLVPAHKNLNKQAYDLAKALLKRTAQAIEPYITNFFNQVLMLGKTSISDLSEHVFDLILELYNIDSHLLLSVLPQLEFKLKSNDNEERLQVVKLLAKMFGAKDSELASQNKPLWQCYLGRFNDIHVPIRLECVKFASHCLMNHPDLAKDLTEYLKVRSHDPEEAIRHDVIVSIVTAAKKDILLVNDHLLNFVRERTLDKRWRVRKEAMMGLAQIYKKYALQSAAGKDAAKQIAWIKDKLLHIYYQNSIDDRLLVERIFAQYMVPHNLETTERMKCLYYLYATLDLNAVKALNEMWKCQNLLRHQVKDLLDLIKQPKTDASVKAIFSKVMVITRNLPDPGKAQDFMKKFTQVLEDDEKIRKQLEVLVSPTCSCKQAEGCVREITKKLGNPKQPTNPFLEMIKFLLERIAPVHIDTESISALIKQVNKSIDGTADDEDEGVPTDQAIRAGLELLKVLSFTHPISFHSAETFESLLACLKMDDEKVAEAALQIFKNTGSKIEEDFPHIRSALLPVLHHKSKKGPPRQAKYAIHCIHAIFSSKETQFAQIFEPLHKSLDPSNLEHLITPLVTIGHIALLAPDQFAAPLKSLVATFIVKDLLMNDRLPGKKTTKLWVPDEEVSPETMVKIQAIKMMVRWLLGMKNNHSKSGTSTLRLLTTILHSDGDLTEQGKISKPDMSRLRLAAGSAIVKLAQEPCYHEIITLEQYQLCALAINDECYQVRQVFAQKLHKGLSRLRLPLEYMAICALCAKDPVKERRAHARQCLVKNINVRREYLKQHAAVSEKLLSLLPEYVVPYTIHLLAHDPDYVKVQDIEQLKDVKECLWFVLEILMAKNENNSHAFIRKMVENIKQTKDAQGPDDAKMNEKLYTVCDVAMNIIMSKSTTYSLESPKDPVLPARFFTQPDKNFSNTKNYLPPEMKSFFTPGKPKTTNVLGAVNKPLSSAGKQSQTKSSRMETVSNASSSSNPSSPGRIKGRLDSSEMDHSENEDYTMSSPLPGKKSDKRDDSDLVRSELEKPRGRKKTPVTEQEEKLGMDDLTKLVQEQKPKGSQRSRKRGHTASESDEQQWPEEKRLKEDILENEDEQNSPPKKGKRGRPPKPLGGGTPKEEPTMKTSKKGSKKKSGPPAPEEEEEEERQSGNTEQKSKSKQHRVSRRAQQRAESPESSAIESTQSTPQKGRGRPSKTPSPSQPKKNVRVGRSKQAATKENDSSEEVDVFQGSSPVDDIPQEETEEEEVSTVNVRRRSAKRERR

Target: T1, WAPL-GFP (Wings apart-like protein, exogenous) (UniProt Q7Z5K2)
T1 sequence: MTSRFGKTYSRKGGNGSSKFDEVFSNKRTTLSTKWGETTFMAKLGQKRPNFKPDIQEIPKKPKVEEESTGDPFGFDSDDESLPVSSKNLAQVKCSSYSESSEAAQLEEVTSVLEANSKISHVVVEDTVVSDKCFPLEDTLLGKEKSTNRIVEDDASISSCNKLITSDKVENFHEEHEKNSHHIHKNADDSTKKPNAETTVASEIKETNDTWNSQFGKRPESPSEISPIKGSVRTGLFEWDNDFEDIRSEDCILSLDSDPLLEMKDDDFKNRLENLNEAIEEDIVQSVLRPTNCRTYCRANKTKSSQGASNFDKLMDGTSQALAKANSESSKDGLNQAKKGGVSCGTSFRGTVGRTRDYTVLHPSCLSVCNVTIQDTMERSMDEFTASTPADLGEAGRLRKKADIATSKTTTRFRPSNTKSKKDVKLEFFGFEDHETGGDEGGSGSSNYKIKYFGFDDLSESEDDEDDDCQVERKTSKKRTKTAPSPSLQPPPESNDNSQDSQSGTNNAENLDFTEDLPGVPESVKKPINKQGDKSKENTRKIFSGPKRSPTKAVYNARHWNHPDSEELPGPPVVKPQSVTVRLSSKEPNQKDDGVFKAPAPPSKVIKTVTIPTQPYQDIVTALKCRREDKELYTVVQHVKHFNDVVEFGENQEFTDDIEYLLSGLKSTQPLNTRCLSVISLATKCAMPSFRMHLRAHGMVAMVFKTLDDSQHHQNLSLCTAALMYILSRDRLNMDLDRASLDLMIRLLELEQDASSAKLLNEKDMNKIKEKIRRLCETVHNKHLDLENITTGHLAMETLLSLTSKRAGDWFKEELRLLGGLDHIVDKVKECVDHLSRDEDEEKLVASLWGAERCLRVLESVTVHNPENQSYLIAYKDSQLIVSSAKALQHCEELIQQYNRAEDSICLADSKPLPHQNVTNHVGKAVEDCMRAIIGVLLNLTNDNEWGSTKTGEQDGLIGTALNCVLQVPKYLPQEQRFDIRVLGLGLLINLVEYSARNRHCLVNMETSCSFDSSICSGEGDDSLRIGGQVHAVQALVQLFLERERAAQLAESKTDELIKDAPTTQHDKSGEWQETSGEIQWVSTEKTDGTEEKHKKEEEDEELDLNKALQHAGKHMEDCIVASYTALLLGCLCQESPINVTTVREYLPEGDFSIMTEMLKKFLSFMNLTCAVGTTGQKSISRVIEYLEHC
Assay: co-IP

Row | Molecule | binding
1 | p62 (also known as Sequestosome-1) (from UniProt Q13501 1-440) | binds
2 | B1 | binds
